Results from publication PMC11466968.

Protein sequences, listed by entry. Tags and fused reporters are not part of them. Lines headed by an entry give the natural chain unless they say otherwise; changes in a name come on top.
UniProt O95817: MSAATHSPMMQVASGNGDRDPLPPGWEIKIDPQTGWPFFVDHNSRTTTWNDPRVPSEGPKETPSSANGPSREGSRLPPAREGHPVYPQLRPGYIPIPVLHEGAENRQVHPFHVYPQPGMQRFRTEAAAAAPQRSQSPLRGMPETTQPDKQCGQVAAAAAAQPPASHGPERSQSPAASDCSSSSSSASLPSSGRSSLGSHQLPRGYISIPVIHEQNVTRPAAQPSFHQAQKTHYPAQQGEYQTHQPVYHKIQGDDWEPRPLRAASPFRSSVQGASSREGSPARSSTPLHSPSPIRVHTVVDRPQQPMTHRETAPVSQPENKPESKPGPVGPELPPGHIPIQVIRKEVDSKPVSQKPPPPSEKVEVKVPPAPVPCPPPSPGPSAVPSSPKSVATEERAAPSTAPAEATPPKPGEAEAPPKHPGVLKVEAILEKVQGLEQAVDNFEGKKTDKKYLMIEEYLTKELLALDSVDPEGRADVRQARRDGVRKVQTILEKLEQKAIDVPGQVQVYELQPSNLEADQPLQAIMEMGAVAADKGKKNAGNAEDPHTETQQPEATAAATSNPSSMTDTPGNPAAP
UniProt Q13554: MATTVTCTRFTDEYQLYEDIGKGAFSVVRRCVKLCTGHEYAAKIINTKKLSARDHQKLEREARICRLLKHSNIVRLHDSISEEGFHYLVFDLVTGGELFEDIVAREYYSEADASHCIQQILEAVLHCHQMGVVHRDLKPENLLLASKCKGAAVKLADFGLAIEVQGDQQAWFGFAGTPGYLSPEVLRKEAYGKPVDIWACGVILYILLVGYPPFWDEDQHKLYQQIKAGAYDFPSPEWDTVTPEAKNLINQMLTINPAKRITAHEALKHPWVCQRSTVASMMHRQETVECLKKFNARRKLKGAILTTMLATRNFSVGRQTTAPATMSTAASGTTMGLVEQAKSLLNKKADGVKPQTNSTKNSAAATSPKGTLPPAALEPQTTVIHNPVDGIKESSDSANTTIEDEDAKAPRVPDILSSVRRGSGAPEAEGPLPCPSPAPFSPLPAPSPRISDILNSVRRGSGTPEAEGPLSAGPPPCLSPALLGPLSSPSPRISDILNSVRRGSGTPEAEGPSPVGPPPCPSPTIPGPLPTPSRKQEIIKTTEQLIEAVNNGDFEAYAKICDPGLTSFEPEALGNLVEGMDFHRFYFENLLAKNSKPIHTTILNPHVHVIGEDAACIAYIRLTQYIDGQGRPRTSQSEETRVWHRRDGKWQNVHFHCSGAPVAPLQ

Molecular target: BAG3 (form in the experiment not stated) (UniProt O95817)
Assay: co-IP; HEK293 transfected with the indicated plasmids; treated with MG132 (Fig. 4B, D, E) or not (Fig. 4B, F, G); immunoprecipitation with the indicated antibody; NP-40 alternative lysis buffer, 4 °C

Substance: CaMKIIβ (T287A)-4FLAG (from UniProt Q13554) (enzyme)
- binding: binds

These are yes or no findings as the source states them, for the method shown. In cells and extracts the contact can be indirect. Binding calls can cover weak binding; strength is not graded here.
